# Reference: the supplement of paper PMC12819154, “High-throughput peptide-centric local stability assay extends protein–ligand identification to membrane proteins, tissues and bacteria” (Nature Structural & Molecular Biology, 2025)
# The chains behind the UniProt entries cited, without tags or fusion partners. Where a name states a change or a piece, a line headed by the entry shows the natural chain unless it says otherwise.
# UniProt Q9C0D0: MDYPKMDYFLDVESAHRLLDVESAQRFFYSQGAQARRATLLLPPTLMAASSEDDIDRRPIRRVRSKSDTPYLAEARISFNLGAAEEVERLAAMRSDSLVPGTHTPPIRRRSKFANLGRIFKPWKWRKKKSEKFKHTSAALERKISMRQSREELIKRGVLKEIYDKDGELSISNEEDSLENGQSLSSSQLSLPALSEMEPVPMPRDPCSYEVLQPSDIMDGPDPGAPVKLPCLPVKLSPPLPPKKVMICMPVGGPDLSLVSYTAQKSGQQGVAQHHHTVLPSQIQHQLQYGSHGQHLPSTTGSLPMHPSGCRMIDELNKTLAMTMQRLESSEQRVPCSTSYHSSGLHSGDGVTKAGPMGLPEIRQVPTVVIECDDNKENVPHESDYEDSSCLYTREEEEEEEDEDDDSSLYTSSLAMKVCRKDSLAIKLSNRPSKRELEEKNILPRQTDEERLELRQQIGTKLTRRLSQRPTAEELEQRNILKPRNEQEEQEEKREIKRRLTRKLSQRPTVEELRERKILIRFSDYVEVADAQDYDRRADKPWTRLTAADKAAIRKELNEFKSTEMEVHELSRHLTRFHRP
# UniProt Q9BXD5: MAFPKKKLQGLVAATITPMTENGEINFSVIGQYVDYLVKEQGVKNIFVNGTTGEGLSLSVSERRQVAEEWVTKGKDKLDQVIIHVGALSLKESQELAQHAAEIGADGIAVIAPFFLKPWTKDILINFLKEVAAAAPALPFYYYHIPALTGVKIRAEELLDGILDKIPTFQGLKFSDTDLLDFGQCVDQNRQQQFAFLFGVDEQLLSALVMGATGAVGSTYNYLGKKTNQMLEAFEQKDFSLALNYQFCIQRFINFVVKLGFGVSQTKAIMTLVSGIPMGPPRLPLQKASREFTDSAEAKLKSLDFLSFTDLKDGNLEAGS
# UniProt Q9H0N5: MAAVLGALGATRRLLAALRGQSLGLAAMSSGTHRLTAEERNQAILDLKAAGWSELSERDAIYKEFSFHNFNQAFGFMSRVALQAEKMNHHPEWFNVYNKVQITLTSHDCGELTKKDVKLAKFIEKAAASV
# UniProt Q9H063: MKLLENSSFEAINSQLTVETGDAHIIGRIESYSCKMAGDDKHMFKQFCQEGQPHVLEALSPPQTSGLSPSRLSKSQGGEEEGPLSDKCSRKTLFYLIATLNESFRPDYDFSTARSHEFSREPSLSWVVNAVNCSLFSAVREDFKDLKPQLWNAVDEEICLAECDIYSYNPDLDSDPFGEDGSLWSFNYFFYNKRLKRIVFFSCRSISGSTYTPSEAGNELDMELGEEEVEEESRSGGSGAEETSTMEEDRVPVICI
# UniProt Q9BY42: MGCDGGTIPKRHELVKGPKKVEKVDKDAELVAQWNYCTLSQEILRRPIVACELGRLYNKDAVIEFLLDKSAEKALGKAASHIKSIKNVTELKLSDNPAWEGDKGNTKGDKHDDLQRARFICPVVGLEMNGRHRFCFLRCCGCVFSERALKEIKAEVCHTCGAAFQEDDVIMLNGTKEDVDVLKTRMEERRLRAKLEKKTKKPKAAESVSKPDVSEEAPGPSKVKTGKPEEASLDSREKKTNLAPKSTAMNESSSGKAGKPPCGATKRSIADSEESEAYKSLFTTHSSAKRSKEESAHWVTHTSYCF
# UniProt Q9BUQ8: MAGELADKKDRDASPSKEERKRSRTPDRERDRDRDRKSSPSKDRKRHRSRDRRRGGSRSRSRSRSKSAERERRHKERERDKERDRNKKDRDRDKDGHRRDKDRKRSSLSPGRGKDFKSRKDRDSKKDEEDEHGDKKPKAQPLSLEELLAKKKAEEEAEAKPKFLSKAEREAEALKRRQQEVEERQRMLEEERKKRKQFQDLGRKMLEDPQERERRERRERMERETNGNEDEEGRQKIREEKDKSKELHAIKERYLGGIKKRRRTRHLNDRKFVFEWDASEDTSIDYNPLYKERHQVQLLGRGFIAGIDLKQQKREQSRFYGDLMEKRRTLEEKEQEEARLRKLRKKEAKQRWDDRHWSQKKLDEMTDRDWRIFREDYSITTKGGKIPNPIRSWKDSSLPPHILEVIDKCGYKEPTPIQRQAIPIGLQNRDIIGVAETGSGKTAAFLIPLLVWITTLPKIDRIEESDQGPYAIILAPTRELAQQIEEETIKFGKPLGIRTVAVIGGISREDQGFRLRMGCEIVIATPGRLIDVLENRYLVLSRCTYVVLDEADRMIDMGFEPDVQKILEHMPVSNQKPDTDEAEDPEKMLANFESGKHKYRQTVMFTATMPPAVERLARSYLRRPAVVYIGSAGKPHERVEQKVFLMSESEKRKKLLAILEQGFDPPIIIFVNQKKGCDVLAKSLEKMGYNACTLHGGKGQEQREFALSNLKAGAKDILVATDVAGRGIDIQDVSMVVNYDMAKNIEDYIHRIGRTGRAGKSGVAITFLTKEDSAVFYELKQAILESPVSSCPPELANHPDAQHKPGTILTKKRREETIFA
# UniProt Q9BZG8: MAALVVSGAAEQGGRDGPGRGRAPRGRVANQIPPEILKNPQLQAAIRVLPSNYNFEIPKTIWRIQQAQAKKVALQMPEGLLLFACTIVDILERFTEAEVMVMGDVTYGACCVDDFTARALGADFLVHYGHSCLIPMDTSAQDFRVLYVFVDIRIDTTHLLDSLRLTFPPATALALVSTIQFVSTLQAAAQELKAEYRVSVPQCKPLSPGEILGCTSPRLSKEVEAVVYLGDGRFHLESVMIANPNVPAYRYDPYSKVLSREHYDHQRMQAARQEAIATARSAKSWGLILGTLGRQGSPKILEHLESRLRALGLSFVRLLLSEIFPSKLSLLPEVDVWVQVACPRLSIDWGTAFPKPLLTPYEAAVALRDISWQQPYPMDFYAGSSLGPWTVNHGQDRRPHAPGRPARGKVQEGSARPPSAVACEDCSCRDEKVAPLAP
# UniProt Q9H0C5: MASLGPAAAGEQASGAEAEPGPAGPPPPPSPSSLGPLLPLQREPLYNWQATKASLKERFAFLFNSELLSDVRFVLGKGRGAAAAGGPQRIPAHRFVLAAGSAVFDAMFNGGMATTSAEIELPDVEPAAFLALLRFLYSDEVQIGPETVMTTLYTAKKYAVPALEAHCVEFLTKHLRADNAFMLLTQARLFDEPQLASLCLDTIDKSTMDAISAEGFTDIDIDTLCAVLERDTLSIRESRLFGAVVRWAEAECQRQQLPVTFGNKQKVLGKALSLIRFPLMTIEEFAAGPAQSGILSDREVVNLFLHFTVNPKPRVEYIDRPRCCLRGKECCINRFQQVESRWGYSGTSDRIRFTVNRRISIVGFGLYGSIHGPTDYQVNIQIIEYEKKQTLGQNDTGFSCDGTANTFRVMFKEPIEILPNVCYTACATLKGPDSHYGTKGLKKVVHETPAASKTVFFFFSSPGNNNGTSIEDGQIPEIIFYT
# UniProt Q9C0I1: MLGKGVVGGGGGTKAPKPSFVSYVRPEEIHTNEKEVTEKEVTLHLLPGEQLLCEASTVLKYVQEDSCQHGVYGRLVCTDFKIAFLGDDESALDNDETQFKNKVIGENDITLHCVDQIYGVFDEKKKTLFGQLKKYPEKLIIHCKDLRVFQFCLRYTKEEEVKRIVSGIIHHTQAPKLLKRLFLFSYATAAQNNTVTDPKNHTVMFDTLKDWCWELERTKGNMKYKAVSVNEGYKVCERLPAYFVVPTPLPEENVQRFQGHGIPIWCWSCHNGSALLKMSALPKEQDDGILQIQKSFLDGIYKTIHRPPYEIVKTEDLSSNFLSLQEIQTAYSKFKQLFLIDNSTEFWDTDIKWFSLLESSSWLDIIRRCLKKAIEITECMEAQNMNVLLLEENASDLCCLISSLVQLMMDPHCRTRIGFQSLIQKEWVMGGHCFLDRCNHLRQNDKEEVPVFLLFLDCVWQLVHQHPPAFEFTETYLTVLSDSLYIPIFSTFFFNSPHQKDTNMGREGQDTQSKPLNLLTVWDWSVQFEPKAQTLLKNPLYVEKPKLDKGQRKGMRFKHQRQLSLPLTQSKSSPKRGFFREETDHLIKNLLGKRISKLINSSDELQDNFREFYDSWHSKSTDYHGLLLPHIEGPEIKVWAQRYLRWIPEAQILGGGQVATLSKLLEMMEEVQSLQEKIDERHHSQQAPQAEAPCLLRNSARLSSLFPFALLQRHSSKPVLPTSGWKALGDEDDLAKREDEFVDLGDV
# UniProt Q9H078: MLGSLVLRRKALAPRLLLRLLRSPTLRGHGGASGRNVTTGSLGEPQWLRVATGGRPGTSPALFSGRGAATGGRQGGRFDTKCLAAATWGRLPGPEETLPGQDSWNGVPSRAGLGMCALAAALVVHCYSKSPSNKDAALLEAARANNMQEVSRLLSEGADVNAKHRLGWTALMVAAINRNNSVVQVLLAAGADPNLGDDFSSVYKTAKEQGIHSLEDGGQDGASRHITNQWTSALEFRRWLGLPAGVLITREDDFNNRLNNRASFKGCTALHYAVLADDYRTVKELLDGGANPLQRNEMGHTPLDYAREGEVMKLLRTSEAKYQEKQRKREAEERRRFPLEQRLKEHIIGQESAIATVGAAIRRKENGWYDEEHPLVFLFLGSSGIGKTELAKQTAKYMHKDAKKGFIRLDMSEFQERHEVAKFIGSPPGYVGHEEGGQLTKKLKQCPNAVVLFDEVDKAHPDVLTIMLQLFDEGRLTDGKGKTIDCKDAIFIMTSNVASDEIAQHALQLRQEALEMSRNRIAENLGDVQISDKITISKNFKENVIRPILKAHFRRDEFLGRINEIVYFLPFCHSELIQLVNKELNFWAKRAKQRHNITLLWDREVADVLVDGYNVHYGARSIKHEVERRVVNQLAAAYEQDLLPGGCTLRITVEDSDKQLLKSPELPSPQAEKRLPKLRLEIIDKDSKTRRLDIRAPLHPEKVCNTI
# UniProt Q9BYV8: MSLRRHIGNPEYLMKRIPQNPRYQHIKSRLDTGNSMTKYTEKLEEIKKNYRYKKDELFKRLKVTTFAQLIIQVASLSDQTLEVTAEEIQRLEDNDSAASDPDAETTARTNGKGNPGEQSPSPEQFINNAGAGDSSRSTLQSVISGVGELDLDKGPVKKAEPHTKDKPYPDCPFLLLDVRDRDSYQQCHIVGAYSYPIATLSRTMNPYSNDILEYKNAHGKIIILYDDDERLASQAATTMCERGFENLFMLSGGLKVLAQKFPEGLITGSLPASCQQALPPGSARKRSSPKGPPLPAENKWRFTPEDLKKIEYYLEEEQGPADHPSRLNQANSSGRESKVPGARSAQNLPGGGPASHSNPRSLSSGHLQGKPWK
# UniProt Q9H089: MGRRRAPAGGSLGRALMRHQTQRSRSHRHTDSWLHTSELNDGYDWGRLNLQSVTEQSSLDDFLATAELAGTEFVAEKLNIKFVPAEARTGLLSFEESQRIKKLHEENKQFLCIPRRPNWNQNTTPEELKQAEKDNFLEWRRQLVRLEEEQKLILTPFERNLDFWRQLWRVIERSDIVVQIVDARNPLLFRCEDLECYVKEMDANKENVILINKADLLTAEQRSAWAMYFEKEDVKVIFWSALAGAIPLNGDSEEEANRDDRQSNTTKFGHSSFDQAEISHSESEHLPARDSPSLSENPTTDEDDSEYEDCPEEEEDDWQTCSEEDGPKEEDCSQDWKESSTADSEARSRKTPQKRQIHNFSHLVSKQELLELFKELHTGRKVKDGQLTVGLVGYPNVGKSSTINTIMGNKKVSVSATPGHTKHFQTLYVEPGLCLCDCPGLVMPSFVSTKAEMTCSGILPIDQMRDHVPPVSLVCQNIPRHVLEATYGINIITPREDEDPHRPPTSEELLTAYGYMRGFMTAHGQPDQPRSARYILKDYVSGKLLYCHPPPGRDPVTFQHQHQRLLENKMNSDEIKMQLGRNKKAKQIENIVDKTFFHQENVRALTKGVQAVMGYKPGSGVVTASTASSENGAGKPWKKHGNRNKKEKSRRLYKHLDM
# UniProt Q9H1I8: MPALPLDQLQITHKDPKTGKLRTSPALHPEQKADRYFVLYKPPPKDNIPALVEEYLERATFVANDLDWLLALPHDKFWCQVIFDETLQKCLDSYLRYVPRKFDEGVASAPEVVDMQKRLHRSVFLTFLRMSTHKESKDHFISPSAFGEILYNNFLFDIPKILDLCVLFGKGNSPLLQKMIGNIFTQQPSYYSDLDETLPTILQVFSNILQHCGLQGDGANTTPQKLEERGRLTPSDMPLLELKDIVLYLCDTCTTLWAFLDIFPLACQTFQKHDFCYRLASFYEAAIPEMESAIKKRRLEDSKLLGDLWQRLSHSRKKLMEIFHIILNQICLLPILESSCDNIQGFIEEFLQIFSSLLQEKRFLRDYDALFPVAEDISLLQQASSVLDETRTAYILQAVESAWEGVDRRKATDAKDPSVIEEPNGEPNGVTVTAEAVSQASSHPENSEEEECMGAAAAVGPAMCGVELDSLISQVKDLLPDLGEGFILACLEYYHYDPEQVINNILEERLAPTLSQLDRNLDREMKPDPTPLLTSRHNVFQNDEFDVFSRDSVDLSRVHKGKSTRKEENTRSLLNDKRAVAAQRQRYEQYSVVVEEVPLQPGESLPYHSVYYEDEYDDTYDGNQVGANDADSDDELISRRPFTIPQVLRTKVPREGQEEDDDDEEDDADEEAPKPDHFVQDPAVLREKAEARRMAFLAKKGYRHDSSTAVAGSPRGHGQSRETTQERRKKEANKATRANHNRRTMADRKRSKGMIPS
# The list shows a part of the results. Most values lie at the level of the controls, where differences are scatter.
# Compound: Cc1nc(Nc2ncc(C(=O)Nc3c(C)cccc3Cl)s2)cc(N2CCN(CCO)CC2)n1 [dasatinib]
# Test: log2 fold change of tryptic peptide abundance, ligand vs vehicle (limited proteolysis) (log2 ratio); higher = more trypsin-susceptible (destabilized)
# Details: ligand concentration: 5 uM; sample: K562 cleared lysate
row,Target,log2 fold change
1,"UniProt Q9C0G6 (peptide sequence: KLYKMAGVEDK, peptide start residue: 2488)",0.245
2,"UniProt Q9C0D0 (peptide sequence: STEMEVHELSR, peptide start residue: 562)",0.307
3,"NPL (peptide sequence: QVAEEWVTK, peptide start residue: 65) (UniProt Q9BXD5)",0.638
4,"PCBD2 (peptide sequence: VQITLTSHDCGELTKK, peptide start residue: 100) (UniProt Q9H0N5)",-0.377
5,"MAF1 (peptide sequence: SQGGEEEGPLSDKCSRK, peptide start residue: 75) (UniProt Q9H063)",0.166
6,"MRPL18 (peptide sequence: NLELLSVAR, peptide start residue: 55) (UniProt Q9H0U6)",0.145
7,"UniProt Q9H190 (peptide sequence: VDQAIQAQVR, peptide start residue: 13)",0.353
8,"UniProt Q9BY42 (peptide sequence: AAESVSKPDVSEEAPGPSKVK, peptide start residue: 204)",0.861
9,"DDA1 (peptide sequence: KRDQEQVELEGESSAPPR, peptide start residue: 71) (UniProt Q9BW61)",0.176
10,"MRPL4 (peptide sequence: VGLADLHPDVFATAPR, peptide start residue: 77) (UniProt Q9BYD3)",0.256
11,"AMBRA1 (peptide sequence: GQPGLATHSSVNR, peptide start residue: 825) (UniProt Q9C0C7)",-0.211
12,"UniProt Q9BZR9 (peptide sequence: DWLDASQQPGHQDFYR, peptide start residue: 523)",-0.0333
13,"EGLN1 (peptide sequence: DRQYCELCGKMENLLR, peptide start residue: 17) (UniProt Q9GZT9)",-0.793
14,"POLR1E (peptide sequence: EKMDSCIEAFGTTK, peptide start residue: 133) (UniProt Q9GZS1)",0.117
15,"TARS2 (peptide sequence: AEASGGLGGLTR, peptide start residue: 439) (UniProt Q9BW92)",-0.155
16,"DDX23 (peptide sequence: HQVQLLGR, peptide start residue: 294) (UniProt Q9BUQ8)",0.104
17,"SCNM1 (peptide sequence: APHYNSCCRR, peptide start residue: 121) (UniProt Q9BWG6)",-0.152
18,"DPH1 (peptide sequence: GKVQEGSARPPSAVACEDCSCR, peptide start residue: 413) (UniProt Q9BZG8)",0.147
19,"BTBD1 (peptide sequence: EPLYNWQATK, peptide start residue: 43) (UniProt Q9H0C5)",-0.428

row,Target,log2 fold change
1,"UniProt Q9BYE2 (peptide sequence: NKPGVYTK, peptide start residue: 224)",0.0133
2,"UniProt Q9BZL1 (peptide sequence: LIAAQTGTR, peptide start residue: 30)",-0.256
3,"REXO4 (peptide sequence: KEWESMAR, peptide start residue: 399) (UniProt Q9GZR2)",-0.463
4,"UniProt Q9C0I1 (peptide sequence: STDYHGLLLPHIEGPEIK, peptide start residue: 620)",-0.704
5,"SPRTN (peptide sequence: DKPNRGEAQLVIPFSGK, peptide start residue: 240) (UniProt Q9H040)",-0.473
6,"ACTR6 (peptide sequence: LKGEENTVMIDYVLPDFSTIKK, peptide start residue: 225) (UniProt Q9GZN1)",0.286
7,"TRAF4 (peptide sequence: HVEESVKPHLAMMCALVSR, peptide start residue: 269) (UniProt Q9BUZ4)",0.111
8,"UniProt Q9GZZ1 (peptide sequence: FGFEIIETK, peptide start residue: 127)",0.368
9,"CLPB (peptide sequence: LEIIDKDSK, peptide start residue: 680) (UniProt Q9H078)",-0.659
10,"C20orf27 (peptide sequence: YEITFTLPPVHR, peptide start residue: 64) (UniProt Q9GZN8)",0.299
11,"TBC1D2 (peptide sequence: ADAEEGIFEIK, peptide start residue: 104) (UniProt Q9BYX2)",0.904
12,"UniProt Q9BYV8 (peptide sequence: HIGNPEYLMK, peptide start residue: 6)",0.228
13,"LSG1 (peptide sequence: TFFHQENVR, peptide start residue: 595) (UniProt Q9H089)",0.56
14,"NLRP1 (peptide sequence: AASHVAQANLK, peptide start residue: 1020) (UniProt Q9C000)",0.0958
15,"UTP14A (peptide sequence: KVNPAAALEELEKIEK, peptide start residue: 273) (UniProt Q9BVJ6)",-0.396
16,"NUP85 (peptide sequence: LFNESHGIFLGLQR, peptide start residue: 71) (UniProt Q9BW27)",0.366
17,"C2orf49 (peptide sequence: RPLIVFDGSSTSTSIK, peptide start residue: 99) (UniProt Q9BVC5)",-0.259
18,"ASCC2 (peptide sequence: PALPLDQLQITHKDPK, peptide start residue: 2) (UniProt Q9H1I8)",-0.234
